The reference is the same well before dosing, and untreated signal decays as well.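 Labels refer to human fibroblasts, largely primary: uterine (C12385, HUF), lung (H6013), bone (Hs27A), adrenal (HADF), skin (WS1), plus mammary HMF and breast cancer-associated Hs343T. Cancer lines are basal-like or mesenchymal-like triple-negative breast cancer. The paper counts as hits responses shifting over 3x the replicate standard deviation. The tissue of the other fibroblasts is not given here.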
System: BT20
Test: relative JC-1 red fluorescence (viability) vs pre-drug, coculture with fibroblast (fraction); higher = more viable cancer cells
Protocol: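 JC-1 labelled TNBC cells cocultured 1:1 (1,500 cells each) with CellTrace Violet stained primary or stromal fibroblasts in 384-well plates in FluoroBrite medium, treated with one of 42 anticancer drugs at 0.1, 1, 10 or 100 uM. JC-1 red fluorescence (mitochondrial integrity in cancer cells only) was read by plate reader every 8 h for 72 h. Values are normalised to each well's pre-drug value. The stock of one drug was tenfold lower, so its dose labels may be too high.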

CCCCCOC(=O)Nc1nc(=O)n([C@@H]2O[C@H](C)[C@@H](O)[C@H]2O)cc1F [Capecitabine]
relative JC-1 red fluorescence
Conditions	8 h	16 h	24 h	32 h	40 h	48 h	56 h	64 h	72 h
0.1 µM, coculture fibroblast: C12385	0.88	0.805	0.748	0.67	0.606	0.57	0.535	0.517	0.4994
0.1 µM, coculture fibroblast: H6013	0.943	0.9031	0.869	0.824	0.777	0.758	0.746	0.713	0.698
0.1 µM, coculture fibroblast: H6019	0.854	0.788	0.7548	0.697	0.658	0.635	0.596	0.558	0.538
0.1 µM, coculture fibroblast: H6076	0.941	0.901	0.802	0.748	0.72	0.688	0.68	0.666	0.646
0.1 µM, coculture fibroblast: H6231	0.808	0.878	0.788	0.703	0.659	0.611	0.575	0.552	0.528
0.1 µM, coculture fibroblast: HADF	0.95	0.911	0.832	0.8032	0.765	0.712	0.697	0.672	0.6318
0.1 µM, coculture fibroblast: HCFa	0.934	0.894	0.875	0.817	0.771	0.725	0.703	0.675	0.641
0.1 µM, coculture fibroblast: HCPF	0.863	0.909	0.825	0.758	0.708	0.648	0.6035	0.588	0.56
0.1 µM, coculture fibroblast: HHSteC	0.9113	0.885	0.864	0.782	0.739	0.7	0.672	0.637	0.613
0.1 µM, coculture fibroblast: HMF	0.95	0.857	0.754	0.696	0.654	0.6061	0.582	0.556	0.541
0.1 µM, coculture fibroblast: HPFa	0.9586	0.8612	0.837	0.7444	0.697	0.645	0.602	0.564	0.504
0.1 µM, coculture fibroblast: HUF	0.9092	0.7909	0.759	0.668	0.622	0.581	0.546	0.53	0.509
0.1 µM, coculture fibroblast: Hs5	0.764	0.9601	0.864	0.791	0.729	0.679	0.629	0.592	0.564
0.1 µM, coculture fibroblast: Hs27A	0.787	0.94	0.8912	0.8911	0.833	0.80472	0.7754	0.7482	0.692
0.1 µM, coculture fibroblast: Hs343T	0.851	0.9021	0.7846	0.7334	0.668	0.6188	0.585	0.558	0.524
0.1 µM, coculture fibroblast: WS1	0.832	0.75	0.679	0.599	0.54	0.5	0.463	0.438	0.421
1 µM, coculture fibroblast: C12385	0.934	0.8414	0.804	0.724	0.673	0.647	0.621	0.608	0.596
1 µM, coculture fibroblast: H6013	0.903	0.873	0.901	0.865	0.855	0.845	0.854	0.841	0.84
1 µM, coculture fibroblast: H6019	0.866	0.791	0.764	0.695	0.652	0.637	0.601	0.578	0.56
1 µM, coculture fibroblast: H6076	0.852	0.859	0.778	0.743	0.725	0.695	0.694	0.696	0.686
1 µM, coculture fibroblast: H6231	0.774	0.938	0.7837	0.718	0.666	0.6172	0.582	0.559	0.528
1 µM, coculture fibroblast: HADF	0.895	0.8441	0.8072	0.7471	0.718	0.674	0.6612	0.645	0.62
1 µM, coculture fibroblast: HCFa	0.903	0.822	0.799	0.729	0.681	0.644	0.616	0.586	0.548
1 µM, coculture fibroblast: HCPF	0.897	0.873	0.806	0.749	0.704	0.663	0.621	0.608	0.576
1 µM, coculture fibroblast: HHSteC	0.854	0.904	0.862	0.726	0.761	0.779	0.742	0.661	0.717
1 µM, coculture fibroblast: HMF	0.935	0.8125	0.7162	0.6669	0.629	0.586	0.565	0.546	0.522
1 µM, coculture fibroblast: HPFa	0.939	0.836	0.8654	0.7801	0.7507	0.703	0.691	0.666	0.618
1 µM, coculture fibroblast: HUF	0.923	0.797	0.758	0.678	0.622	0.574	0.549	0.527	0.515
1 µM, coculture fibroblast: Hs5	0.945	0.864	0.7894	0.7367	0.6923	0.6515	0.618	0.59	0.5606
1 µM, coculture fibroblast: Hs27A	0.71	0.7603	0.906	0.92255	0.897	0.804	0.933	0.907	0.857
1 µM, coculture fibroblast: Hs343T	0.975	0.8286	0.7012	0.6323	0.57	0.5201	0.469	0.4412	0.413
1 µM, coculture fibroblast: WS1	0.876	0.76	0.695	0.609	0.552	0.516	0.483	0.459	0.452
10 µM, coculture fibroblast: C12385	0.936	0.847	0.808	0.75	0.703	0.668	0.641	0.612	0.59
10 µM, coculture fibroblast: H6013	0.9	0.865	0.8649	0.82	0.787	0.7743	0.7712	0.758	0.7434
10 µM, coculture fibroblast: H6019	0.8501	0.778	0.762	0.698	0.65	0.631	0.605	0.574	0.549
10 µM, coculture fibroblast: H6076	0.794	0.889	0.776	0.725	0.686	0.6689	0.654	0.651	0.642
10 µM, coculture fibroblast: H6231	0.7704	0.961	0.83	0.756	0.704	0.642	0.59	0.559	0.526
10 µM, coculture fibroblast: HADF	0.989	0.885	0.844	0.801	0.762	0.711	0.703	0.674	0.635
10 µM, coculture fibroblast: HCFa	0.959	0.933	0.905	0.863	0.837	0.817	0.786	0.768	0.732
10 µM, coculture fibroblast: HCPF	0.902	0.882	0.78995	0.747	0.697	0.651	0.603	0.579	0.533
10 µM, coculture fibroblast: HHSteC	0.891	0.8103	0.7784	0.6878	0.635	0.596	0.5651	0.54463	0.515
10 µM, coculture fibroblast: HMF	0.825	0.91	0.797	0.7248	0.6655	0.61387	0.572	0.544	0.5088
10 µM, coculture fibroblast: HPFa	0.969	0.882	0.888	0.808	0.781	0.731	0.699	0.661	0.601
10 µM, coculture fibroblast: HUF	0.916	0.807	0.783	0.7	0.653	0.62	0.601	0.583	0.567
10 µM, coculture fibroblast: Hs5	0.928	0.912	0.816	0.757	0.694	0.654	0.6151	0.5861	0.56
10 µM, coculture fibroblast: Hs27A	0.812	0.81	0.804	0.919	0.92	0.886	0.854	0.818	0.746
10 µM, coculture fibroblast: Hs343T	0.825	0.878	0.7901	0.735	0.678	0.628	0.583	0.563	0.523
10 µM, coculture fibroblast: WS1	0.904	0.827	0.768	0.686	0.622	0.581	0.54	0.5	0.474
100 µM, coculture fibroblast: C12385	0.907	0.8314	0.778	0.7168	0.6641	0.6366	0.6068	0.579	0.5581
100 µM, coculture fibroblast: H6013	0.915	0.8733	0.841	0.807	0.764	0.756	0.745	0.724	0.719
100 µM, coculture fibroblast: H6019	0.885	0.825	0.814	0.752	0.724	0.703	0.685	0.674	0.662
100 µM, coculture fibroblast: H6076	0.951	0.917	0.8314	0.7984	0.75985	0.742	0.726	0.729	0.707
100 µM, coculture fibroblast: H6231	0.832	0.968	0.8573	0.7904	0.745	0.696	0.652	0.626	0.597
100 µM, coculture fibroblast: HADF	0.785	0.853	0.875	0.857	0.818	0.77	0.738	0.699	0.6646
100 µM, coculture fibroblast: HCFa	0.922	0.863	0.8342	0.7847	0.75	0.721	0.707	0.688	0.652
100 µM, coculture fibroblast: HCPF	0.875	0.946	0.867	0.8078	0.7583	0.7077	0.6605	0.642	0.595
100 µM, coculture fibroblast: HHSteC	0.911	0.85072	0.82087	0.761	0.722	0.689	0.656	0.6206	0.599
100 µM, coculture fibroblast: HMF	0.982	0.8993	0.8067	0.7525	0.714	0.667	0.634	0.599	0.565
100 µM, coculture fibroblast: HPFa	0.948	0.868	0.8715	0.7842	0.756	0.713	0.6898	0.6523	0.6067
100 µM, coculture fibroblast: HUF	0.919	0.813	0.776	0.702	0.65	0.617	0.599	0.582	0.564
100 µM, coculture fibroblast: Hs5	0.84	0.892	0.8156	0.7673	0.738	0.701	0.668	0.642	0.62
100 µM, coculture fibroblast: Hs27A	0.822	0.8	0.928	0.932	0.889	0.883	0.868	0.849	0.798
100 µM, coculture fibroblast: Hs343T	0.836	0.911	0.834	0.769	0.726	0.684	0.631	0.604	0.564
100 µM, coculture fibroblast: WS1	0.8691	0.7718	0.736	0.672	0.625	0.6	0.565	0.543	0.532

Source: the supplement of paper PMC6078165
